Each structure is given as a SMILES string. This is one part of the list.

The assay concerns T1, CTL2-GFP (C. trachomatis L2/434/Bu, GFP-expressing).
T1 construct: L2/434/Bu, GFP-expressing
Set-up: species or system HeLa; Intracellular C. trachomatis growth in HeLa cells, bulk GFP fluorescence relative to DMSO. As to conditions: bulk GFP, single well; 28.5 h, 10 µM; inhibitor.
For the compound `O=C(O)c1cc(-c2ccccc2)nc(Nc2nc3ccccc3s2)n1` [CBK264665], the “% of control remaining” value is listed as 115.646%.

As for `COc1cccc(-c2nn(CCC#N)cc2C(N)=O)c1` [CBK305835], the “% of control remaining” value is listed as 97.4741%. As to `COc1cccc(-c2nnn(CC(=O)O)n2)c1` [CBK068202], the “% of control remaining” value is listed as 121.704%. For `O=[N+]([O-])c1ccc(COc2cccc(/C=N/Nc3nc4ccccc4s3)c2)cc1` [CBK262160] the value was 110.275%; for `COc1cc(NC(=O)c2cnc(-c3ccc(Cl)cc3)c(-c3ccco3)c2)cc(C(F)(F)F)c1` [CBK037570], 113.96%. For `CC[C@H]1CN(C(=O)c2cccnc2)CC[C@H]1CC(=O)N1CCC(C(N)=O)CC1` [CBK288772] the value was 122.322%; for `Cc1ccnc2nc(C(=O)OC(C)C(=O)N3CCCCCC3)nn12` (stereo not shown) [CBK306155], 122.465%. Then `O=c1oc2ccccc2c2c1nnn2CCCN1CCOCC1` [CBK261470C], with 117.792%; and `Cc1cc(C)c2nc(NC(=O)c3ccccc3)sc2c1` [CBK287308], with 128.894%. In the case of `COc1c(Cl)cc(Cl)cc1CNC1CCCc2c1cnn2C` (stereo not shown) [CBK304305C], the “% of control remaining” value came to 100.869%. For `CC(=O)COc1cc(OCC(C)=O)c2c3c(c(=O)oc2c1)CCC3` [CBK307219] the value was 134.554%; for `COc1ccc(CN2CCOCC2CC(=O)O)cc1Cn1cncn1` (stereo not shown) [CBK307220], 128.759%; for `Cc1ccn(CCC(=O)N2CCCC(c3cc4cccnc4[nH]3)C2)n1` (stereo not shown) [CBK284927], 122.675%.

For the compound `Cc1nn(-c2ccccc2)c2c1C(c1cnn(C)c1)SCC(=O)N2` (stereo not shown) [CBK287896], the “% of control remaining” value is 74.4172%. For `CS(=O)(=O)c1ccc(-c2ccc3c(c2)COC(C2CCN(C(=O)c4ccccc4O)CC2)O3)cc1` (stereo not shown) [CBK158682] the value was 107.481%; for `COc1ccc(CCNc2nc(-c3ccccn3)cs2)cc1OC` [CBK267260], 155.043%; for `N#Cc1c(NC(=O)CSc2nnc(N)s2)sc2c1CCCC2` [CBK266649], 106.624%. For `c1ccc(CCNc2nc(-c3cccs3)cn3ccnc23)nc1` [CBK066633] the value was 110.149%; for `CCCC(=O)N1CCCCC1c1c(-c2onc(C)c2C)cnn1C` (stereo not shown) [CBK282259], 109.906%; for `CC(C)NC(=O)c1cc(C2CN(Cc3ccc4ncccc4c3)CCO2)nc2ccccc12` (stereo not shown) [CBK285895], 106.322%. For `CC(C)CC(NC(=O)Cc1cccc(O)c1)c1ncnn1C` (stereo not shown) [CBK307050] the value was 99.6419%. In the case of `O=C(Nc1cccc(OCc2ccccc2)c1)c1cnc(-c2ccc(Cl)cc2)c(-c2ccco2)c1` [CBK037429], the “% of control remaining” value was 196.636%.

Source of the values: PMC12040169 (PLOS Biology, 2025).
